Data source: PubChem BioAssay AID1259425 (University of Nebraska Medical Center, 2018)
Shown is a random part of about 14,000 deposited reagents. Not all columns of the deposit are shown. The record does not give: the time to read-out.

- Test: 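Compare each knockdown with KSR1 silencing using changes in marker transcripts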 (primary screen)
- Cell system: HCT116 human colon cancer cells
- Reagents: siRNA pool against human genes, 50 nM siRNA
- Measured: 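mRNA of six signature genes measured together by branched-DNA assay after 50 nM siRNA pool, blank removed, divided by geometric mean of two housekeeping genes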
- Reading the numbers: BNIP3L mRNA: higher = more BNIP3L transcript after knockdown

Silencing of NIPSNAP2 came out at: BNIP3L mRNA, set 1 = 0.144.
ST18 scored BNIP3L mRNA, set 1 = 0.0991.
Against EIF3D the deposit lists BNIP3L mRNA, set 1 = 0.0362.
For LALBA the deposit lists BNIP3L mRNA, set 1 = 0.0975.
After knock-down of ZMYM1, the screen gave BNIP3L mRNA, set 1 = 0.222.
For ADAMTS9 the deposit lists BNIP3L mRNA, set 1 = 0.125.
EFTUD2 scored BNIP3L mRNA, set 1 = 0.13.
Against PRRG2, the entry reads BNIP3L mRNA, set 1 = 0.188.
For PCCB, the entry reads BNIP3L mRNA, set 1 = 0.0707.
For HPN, the values are BNIP3L mRNA, set 1 = 0.145.
After knock-down of ZNHIT2 the results were BNIP3L mRNA, set 1 = 0.104.
After knock-down of CELF2, the screen gave BNIP3L mRNA, set 1 = 0.15.
For PIKFYVE the deposit lists BNIP3L mRNA, set 1 = 0.123.
TTPA scored BNIP3L mRNA, set 1 = 0.127.
SELENOP gave BNIP3L mRNA, set 1 = 0.187.

Quoted from above, 4 entries:
ZMYM1 — BNIP3L mRNA, set 1: 0.222
ADAMTS9 — BNIP3L mRNA, set 1: 0.125
EFTUD2 — BNIP3L mRNA, set 1: 0.13
PRRG2 — BNIP3L mRNA, set 1: 0.188

The list goes on.
Depletion of PBX3 resulted in: BNIP3L mRNA, set 1 = 0.0774.
Depletion of ERP44 gave: BNIP3L mRNA, set 1 = 0.0633.
For CHPF2 the deposit lists BNIP3L mRNA, set 1 = 0.218.
Knock-down of EDDM3A resulted in: BNIP3L mRNA, set 1 = 0.101.
For B3GALT1, the entry reads BNIP3L mRNA, set 1 = 0.172.
TRPV1 gave BNIP3L mRNA, set 1 = 0.0972.
TMEM138 scored BNIP3L mRNA, set 1 = 0.141.
With knock-down of CSF3R, the screen gave BNIP3L mRNA, set 1 = 0.101.
After knock-down of MED21 the results were BNIP3L mRNA, set 1 = 0.145.
Depletion of IDI1 gave: BNIP3L mRNA, set 1 = 0.112.
For RNF146, the values are BNIP3L mRNA, set 1 = 0.0702.
Silencing of DONSON gave: BNIP3L mRNA, set 1 = 0.239.
Silencing of LTC4S resulted in: BNIP3L mRNA, set 1 = 0.101.
After knock-down of MAPK3, the record shows BNIP3L mRNA, set 1 = 0.09.
Knock-down of DGKD came out at: BNIP3L mRNA, set 1 = 0.0828.
With knock-down of F13B, the record shows BNIP3L mRNA, set 1 = 0.0847.
CBLIF gave BNIP3L mRNA, set 1 = 0.0644.
Silencing of ARHGAP10 gave: BNIP3L mRNA, set 1 = 0.17.
Depletion of IFI27L2 came out at: BNIP3L mRNA, set 1 = 0.147.
KLK6 showed BNIP3L mRNA, set 1 = 0.0903.
AMDHD2 gave BNIP3L mRNA, set 1 = 0.0944.
